Assay results published in article PMC12709188.
These are yes or no findings as the source states them, for the method shown. In cells and extracts the contact can be indirect. Some binding calls cover weakened binding; strength is not graded here. Tags and fused reporters may be left off the sequences shown.

Protein sequences, listed by entry. Tags and fused reporters are not part of them. Lines headed by an entry give the natural chain unless they say otherwise; changes in a name come on top.
UniProt A0QSL8: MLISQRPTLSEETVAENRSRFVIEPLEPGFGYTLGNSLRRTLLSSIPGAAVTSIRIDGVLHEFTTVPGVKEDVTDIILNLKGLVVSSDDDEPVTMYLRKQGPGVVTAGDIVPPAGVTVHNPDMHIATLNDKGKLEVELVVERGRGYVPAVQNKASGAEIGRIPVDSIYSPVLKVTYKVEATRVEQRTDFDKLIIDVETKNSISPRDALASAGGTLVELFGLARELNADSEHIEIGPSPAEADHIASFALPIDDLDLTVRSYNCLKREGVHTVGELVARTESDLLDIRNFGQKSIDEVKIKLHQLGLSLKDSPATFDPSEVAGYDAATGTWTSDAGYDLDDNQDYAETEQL
UniProt A0QWV9: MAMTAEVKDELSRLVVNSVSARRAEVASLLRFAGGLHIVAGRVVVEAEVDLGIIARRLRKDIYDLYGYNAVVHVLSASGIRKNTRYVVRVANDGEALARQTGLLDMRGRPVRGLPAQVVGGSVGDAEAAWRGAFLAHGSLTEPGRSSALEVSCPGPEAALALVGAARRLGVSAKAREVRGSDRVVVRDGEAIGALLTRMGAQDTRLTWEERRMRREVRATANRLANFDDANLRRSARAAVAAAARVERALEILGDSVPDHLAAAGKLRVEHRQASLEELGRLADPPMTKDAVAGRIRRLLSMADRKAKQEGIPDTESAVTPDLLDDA

Experiments:
[1] = molecular target: T1, CarD–FLAG (additional copy of FLAG-tagged CarD under an ATc-inducible promoter) (M. smegmatis) (UniProt A0R561); assay: co-IP; FLAG pull-down: M. smegmatis lysates (2–4 mg protein; exponential and stationary phase; for RNAP-FLAG also after crsL knock-down) with M2 anti-FLAG resin 16–18 h at 4°C in 20 mM Tris–HCl pH 7.9, 150 mM KCl, 1 mM MgCl2; SDS–PAGE, silver stain, bands identified by MALDI-FTICR MS and/or western blot
T1 sequence: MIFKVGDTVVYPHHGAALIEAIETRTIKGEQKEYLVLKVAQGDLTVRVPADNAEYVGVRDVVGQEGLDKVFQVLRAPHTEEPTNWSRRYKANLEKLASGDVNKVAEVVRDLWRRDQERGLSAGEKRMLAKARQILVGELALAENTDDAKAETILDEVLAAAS

[2] = molecular target: T2, CarD–gFLAG (FLAG-tag sequence inserted into the M. smegmatis genome at the carD locus) (M. smegmatis) (UniProt A0R561); assay: as above
T2 sequence: T1 sequence

Row | Substance | binding [1] | binding [2]
1 | DNA-dependent RNA polymerase (RNAP) (from UniProt A0QSL8 1-350; P60281 1-1169; A0QS66 1-1317; A0QWT1 1-107) (complex) | binds | –
2 | WhiA (from UniProt A0QWV9 1-327) | – | binds
